This is one part of the list. These are further read-outs of the screen, such as a control signal, another cell line or another target. No call is given for them. Compounds called inactive in the main read-out are mostly missing here. Words in brackets tell the shape of the fitted curve; partial curves, single points and poor fits give uncertain potencies.
Assay: qHTS Assay for Lipid Storage Modulators in Drosophila S3 Cells;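 on cell number change: cells counted by Cell Tracker Red CMTPX staining in the red channel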
Settings: BODIPY lipid droplet fluorescence, 18-24 h; for cell number change: measured here: cell count max response, cells fed with added oleic acid
Outline: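 Drosophila S3 cells got compounds at several concentrations plus oleic acid (400 uM solution). Laser-scanning cytometry with 488 nm excitation read lipid droplets at 500-530 nm and cells at 575-640 nm. Percent activity was relative to 20 uM Triacsin C.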

[1] = measured here: cell number channel AC50, cells fed with added oleic acid
[2] = measured here: lipid fluorescence (Fed channel) AC50, cells fed with added oleic acid

Compound	cell number change [%]	AC50 [1]	AC50 [2]
COc1ccc(CN2CC(C(=O)NCCN3CCOCC3)CC2=O)cc1 (configuration not stated)	-32	2.59 µM [falling, full curve]	3.66 µM [falling, full curve]
Cc1ccc(NC(=O)c2cccc(S(=O)(=O)N3CCN(c4ccccc4)CC3)c2)nc1	-12.7	–	–
C/C(=N\NC(=O)c1nc2ccccn2c1C)c1ccco1	23.8	–	0.58 µM [rising, full curve, poor fit]
COc1ccc(CC(=O)Nc2ccc(S(=O)(=O)Nc3nccs3)cc2)cc1	-5.83	–	4.61 µM [rising, single point]
CCN1CCSc2ccc(C(=O)NCc3ccccc3C)cc21	-6.05	–	3.66 µM [rising, single point]
CSc1nc2c(c(=O)[nH]c(=O)n2C)n1C/C=C(\C)Cl	–	0.651 µM [falling, partial curve]	–
CC(C)C(=O)NC(=S)N(Cc1ccccc1)Cc1ccccc1	-9.69	–	0.164 µM [falling, full curve, poor fit]
COC(=O)C(C)Sc1snnc1-c1ccccc1 (configuration not stated)	-30.6	1.3 µM [falling, full curve]	–
O=C1CC(NS(=O)(=O)c2ccccc2F)CN1c1ccc2c(c1)OCCO2 (configuration not stated)	47.8	18.4 µM [rising, single point]	–
C=CCCN([C@@H](C)C(=O)OC)S(=O)(=O)c1ccccc1Br	-10	–	0.58 µM [falling, partial curve, poor fit]
Cc1cc(C(F)(F)F)nn1-c1nc(-c2ccco2)cc(C(F)(F)F)n1	-40.2	11.6 µM [falling, partial curve]	1.84 µM [rising, partial curve]
Cc1no[n+]([O-])c1COc1cccc(/C=N/Nc2nncn2N)c1	-21.9	–	29.1 µM [falling, single point]
COc1ccc(C2C(C(=O)c3ccco3)=C(O)C(=O)N2CC2CCCO2)cc1 (configuration not stated)	43.7	10.3 µM [rising, partial curve]	10.3 µM [rising, partial curve]
O=C(NCCO)c1nc(NCCO)c2ccccc2n1	-108	20.6 µM [falling, partial curve]	–
NC(=O)c1ccc(NC(=O)C2CCCO2)cc1 (configuration not stated)	-1.85	–	3.26 µM [falling, partial curve, poor fit]
Cc1cc(=O)n2nc(N3CCCC(C(=O)NCCc4ccccc4)C3)sc2n1 (configuration not stated)	30.6	9.2 µM [rising, single point]	–
CCc1cccc(NC(=O)C2CCN(S(=O)(=O)c3c(C)noc3C)CC2)c1	-31.1	23.1 µM [falling, single point]	23.1 µM [falling, single point]
CC(=O)NCCNC(=O)CCNC(=O)c1ccc(Cl)cc1	-30	0.731 µM [falling, full curve, poor fit]	20.6 µM [falling, partial curve]
Cn1c(=O)n(C)c2cc(S(=O)(=O)NCc3ccco3)ccc21	22.5	0.164 µM [rising, full curve, poor fit]	–

Some values from the results shown.
cell number change [%], `C=CCCN([C@@H](C)C(=O)OC)S(=O)(=O)c1ccccc1Br` reads -10
AC50 [1], `CC(=O)NCCNC(=O)CCNC(=O)c1ccc(Cl)cc1` reads 0.731 µM [falling, full curve, poor fit]
AC50 [2], `COc1ccc(C2C(C(=O)c3ccco3)=C(O)C(=O)N2CC2CCCO2)cc1` (configuration not stated) reads 10.3 µM [rising, partial curve]

The results go on.

Compound	cell number change [%]	AC50 [1]	AC50 [2]
O=C(COC(=O)c1ccccc1F)NC1CCCC1	-25.9	–	25.9 µM [falling, single point]
CC1CCCCN1S(=O)(=O)c1ccc(NC(=O)c2cccs2)cc1 (configuration not stated)	–	–	7.31 µM [rising, partial curve]
CC(C)c1cc(C(C)C)c(S(=O)(=O)NNC(=O)c2ccncc2)c(C(C)C)c1	25.1	–	16.4 µM [rising, partial curve, poor fit]
CCOc1ccc(S(=O)(=O)N2CCCCC2)cc1NC(=O)C1CCC1	20.2	–	–
COc1ccc(-n2cc(CNCCN3CCOC3=O)c(-c3ccccc3Cl)n2)cc1	22.7	–	6.51 µM [rising, full curve, poor fit]
CCOc1ccc(NC(=O)CN(C)C(=O)c2cc3c(s2)CCC(C)C3)cc1OCC (configuration not stated)	2.85	–	8.2 µM [falling, partial curve]
O=C(NCC(c1ccco1)N1CCOCC1)C1CCCCC1 (configuration not stated)	-30.5	–	29.1 µM [falling, partial curve, poor fit]
O=C(NC1CCCC1)c1cc(-c2ccc(F)cc2)on1	14.8	–	–
Cc1cc(=O)oc(C)c1C(=O)NCC1CCCO1 (configuration not stated)	-26.7	0.0731 µM [falling, full curve, poor fit]	29.1 µM [falling, single point]
CC(C)c1ccc(/C=C(/C#N)c2nnc(NC(=O)c3ccccc3)s2)cc1	-5.55	–	23.1 µM [rising, partial curve]
O=C(COc1ccccc1)Nc1ccc(S(=O)(=O)NCc2ccco2)cc1	6.88	–	–
COc1cc(-c2noc(CCCC(=O)NCc3ccccc3)n2)cc(OC)c1OC	44.7	0.092 µM [rising, full curve, poor fit]	–
CC(C)C(C)NC(=O)CN1C(=O)NC(c2ccccc2)(c2ccccc2)C1=O (configuration not stated)	–	–	29.1 µM [rising, partial curve]
COc1cc2[nH]c3c(N4CCN(c5ccccn5)CC4)ncnc3c2cc1OC	-53.4	25.9 µM [falling, single point]	29.1 µM [falling, single point]
CCOC(=O)Nc1cccc(NC(=O)c2ccccc2F)c1	-1.09	–	0.731 µM [rising, single point]
COc1ccc(-c2nc3c4ccccc4ccn3c2CN2CCOCC2)cc1OC	-16.9	–	25.9 µM [falling, single point]
CCC(c1nnnn1C(C)(C)C)N1CCN(C2CCCC2)CC1 (configuration not stated)	-209	29.1 µM [falling, partial curve]	25.9 µM [falling, partial curve]
CC(C)SCCCOc1ccc(C(C)(C)C)cc1	-0.445	0.164 µM [falling, full curve, poor fit]	–
CCOC(=O)N/N=C(/C)c1ccc(N2C(=O)C3CCCCC3C2=O)cc1 (configuration not stated)	-19.3	–	0.731 µM [falling, partial curve, poor fit]

— PubChem BioAssay AID2685 (National Center for Advancing Translational Sciences (NCATS), 2010)
